Reference: patent publication US12076331B2, “Inositol derivatives for use in pathological crystallization” (ETH Zurich, priority 2015, dated 2024)

Tested on: high phosphate-induced kidney damage
Test: mouse model of high phosphate-induced kidney damage
Format: in vivo, C57BL/6 male mice
Conditions: 100 mg/kg 3 times/week subcutaneously
Method: C57BL/6 male were placed on either regular diet containing 0.35% inorganic phosphate (NP) or high phosphate diet containing 2.0% inorganic phosphate (HP). These mice were subcutaneously injected with either (OEG2)2-IP4 (100 mg/kg) or vehicle (distilled water) three times a week and then sacrificed at 20 weeks of age to harvest their blood and kidneys. Relative mRNA levels of (A) Spp1, (B) IL36a, (C) Ngal, (D) MMP3 and (E) Col1a1 in kidney tissue homogenate are shown (mean±SD, N=7, except HP vehicle group N=6, two-way ANOVA with Sidak's multiple comparison between (OEG2)2-IP4 vs. vehicle control within the respective diet group, ns—not significant, * p<0.05). […]
C57BL/6 male mice (12 weeks of age) were placed on either regular diet containing 0.35% inorganic phosphate or high phosphate diet containing 2.0% inorganic phosphate. […] Serum FGF23 levels were measured using intact FGF23 ELISA (Kinos) according to the manufacturers' protocols. Serum and urine levels of phosphate were measured using Fuji Dri-Chem slides and the analyzer (Dri-Chem NX500V, Fuji, Tokyo, Japan). […] Quantitative RT-PCR reactions were performed using 20 ng of cDNA incubated with 410 nM of each primer and 6 μL of SYBR Green PCR Master mix (Toyoba, Osaka, Japan THUNDERBIRD SYBR qPCR Mix QPS-201) in a total volume of 12 μl. […] The cortex and the cortico-medullary junction were evaluated separately. […]

COCCOCCO[C@@H]1C(OP(=O)(O)O)[C@H](OCCOCCOC)[C@@H](OP(=O)(O)O)C(OP(=O)(O)O)[C@H]1OP(=O)(O)O (some centres unmarked) [(OEG2)2-IP4]
urinary phosphate excretion, treatment vs vehicle group: no significant difference
serum phosphate, CaP or urine calcium, treatment vs vehicle group (end of the treatment period): no significant differences
